According to patent US20250222125A1 (BeiGene, Ltd., priority 2024, published 2025):

Experiment: general procedure: solution-phase peptide synthesis; HATU/DIEA
Conditions: late stage modification step

Substance | step yield [%]
(S)-11-benzyl-1-(9H-fluoren-9-yl)-20,20-dimethyl-3,6,9,12,15-pentaoxo-2,18-dioxa-4,7,10,13,16-pentaazahenicosan-21-oic Acid | 84.8
Benzyl (S)-11-benzyl-1-(9H-fluoren-9-yl)-20,20-dimethyl-3,6,9,12,15-pentaoxo-2,18-dioxa-4,7,10,13,16-pentaazahenicosan-21-oate | 29.2
